This data set deals with limonene. The experiment in a line: Chamber/sorbent trap VOC sampling from xenograft tumor mice (GC-MS). It counts as in vivo. To be noted: xenograft mouse model, limonene-expressing HeLa cells.

With `C=C(C)[C@H]1CC=C(C)CC1` [limonene], the “smallest tumor diameter at which limonene was detected” value is on record as roughly 5 mm and the “smallest tumor volume at which limonene was detected” value turned out to be 120 mm^3.

For the origin of these results see patent US20240319166A1, “Genetically-encoded volatile synthetic biomarkers for breath-based cancer detection” (The Board of Trustees of the Leland Stanford Junior …, priority 2021, published 2024).
